PubChem BioAssay AID602196 | INSERM – 2012
Aim: 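Genes whose knock-down alters cisplatin killing of lung cancer cells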. System: human A549 lung cancer cells. Reagents: siRNA pair against human genes. Timing: 48 h transfection before cisplatin; time from cisplatin to read-out not stated. Challenge: cisplatin at a dose killing half of control-siRNA cells; exact dose and duration not given. Measured: 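Cisplatin cell death as a shift from the 50% death seen with control siRNA; siRNAs toxic or growth-blocking alone scored 0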. Scale: two-siRNA summed score (-2 to +2): higher = both siRNAs protect from cisplatin killing; -2 means both sensitise. Call rule: 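siRNAs harmful alone (LDH or WST-1) get 0; others get +1 for less and -1 for more cisplatin killing; genes are active when the two siRNAs give the same sign, summing to ±2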. Meaning of the calls: active = both siRNAs shift cisplatin killing the same way; inactive = no consistent shift, or siRNA harmful alone.
In all, the deposit lists about 23,000 reagents; shown is a part drawn at random. In the full data, 455 (2%) were called active. 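Active includes both protection and sensitisation; some change values fall well beyond the stated -50 to +50 range.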 Entries without a mark were called inactive. Further read-outs or replicates are left out here. Not given: the amount of reagent.

With CYP2D6, what does the deposit list?
two-siRNA summed score (-2 to +2): 0

What did the screen give for LOC392791?
two-siRNA summed score (-2 to +2): 0

How did the screen score FAM120B?
two-siRNA summed score (-2 to +2): 0

For AP4S1, what does the deposit list?
two-siRNA summed score (-2 to +2): 1

How did the screen score JAGN1?
two-siRNA summed score (-2 to +2): 0

What is on record for TNFRSF10B?
two-siRNA summed score (-2 to +2): 1

What is on record for OR51L1?
two-siRNA summed score (-2 to +2): 1

What did the screen give for SLC35F1?
two-siRNA summed score (-2 to +2): 1

With EXOC3, how do the results read?
two-siRNA summed score (-2 to +2): 1

With LOC442111, how do the results read?
two-siRNA summed score (-2 to +2): 1

What is on record for SIGLEC17P?
two-siRNA summed score (-2 to +2): 0

Which result is listed for LOC441175?
two-siRNA summed score (-2 to +2): 0
